# Assay results as given in the supplement of paper PMC12009310.
# Where a name gives a salt, the structure may show the parent alone. ± gives the standard deviation of the averaged measurements. This is one part of the list. Plates or batches differ in their baseline, so values are only roughly comparable.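 The cells are a mouse kidney inner medullary collecting duct line, silenced either for the ciliary gene Rpgrip1l or with a non-targeting control siRNA.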
# Key:
# mIMCD3 [1] = assay: robust z score of cell number vs plate controls; higher = more cells (less cytotoxic); conditions: 10 µM, 48 h
# mIMCD3 [2] = assay: robust z score of cilia incidence (% cells with single cilium) vs plate controls; higher = more ciliated cells; conditions: 10 µM; 48 h; siRNA: siScr
# mIMCD3 [3] = assay: robust z score of cilia incidence (% cells with single cilium) vs plate controls; higher = more ciliated cells (rescue of cilia loss); conditions: 10 µM; 48 h; siRNA: siRpgrip1l
Compound,robust z score of cell number (mIMCD3 [1]; siRNA: siRpgrip1l),robust z score of cell number (mIMCD3 [1]; siRNA: siScr),robust z score of cilia incidence (mIMCD3 [2]),robust z score of cilia incidence (mIMCD3 [3])
CC(C)N(CCC(=O)c1ccc2ccccc2c1)Cc1ccccc1,-307 ± 220,-40.6 ± 9.5,-31.5 ± 22,-24.2 ± 9.9
CN(C(=O)CCCOc1ccc2[nH]c(=O)ccc2c1)C1CCCCC1 [Cilostamide],-3.03 ± 0.27,-4.2 ± 2.1,-4.73 ± 2.5,-10.9 ± 4.4
COc1ccc(/C=C/C(=O)Nc2ccccc2C(=O)O)cc1OC [Tranilast],-27.9 ± 22,-8.28 ± 2.2,0.267 ± 1.2,-22.79 ± 0.076
CC(C)NCC(O)c1ccc(NS(C)(=O)=O)cc1 (centres undefined) [Sotalol hydrochloride],-2.79 ± 0.93,0.826 ± 0.24,-3.98 ± 2.7,-9 ± 2.2
Nc1nc2c(cnn2CCc2ccccc2)c2nc(-c3ccco3)nn12,-11.8 ± 4.6,-8.49 ± 0.16,-7.24 ± 9.3,-20.8 ± 15
NC(=O)c1cccc(N)c1 [3-Aminobenzamide],-0.671 ± 0.64,-0.248 ± 3.1,1.17 ± 0.64,-5.84 ± 0.93
COc1cc(CNC(=O)CCCC/C=C/C(C)C)ccc1O [(E)-Capsaicin],-47.5 ± 42,-39.9 ± 0.47,-43.2 ± 12,-28.6 ± 4.4
"Cc1c(C2CCN(CCc3ccccc3)CC2)noc1-c1ccc(Cl)cc1 [L-741,742 hydrochloride]",-30.8 ± 0.32,-29.8 ± 15,-46.4 ± 2.7,-28 ± 5
Cc1c(C(=O)NN2CCOCC2)nn(-c2ccc(Cl)cc2Cl)c1-c1ccc(I)cc1,-6.6 ± 0.96,-0.737 ± 2.5,-0.579 ± 0.48,-18.8 ± 0.96
Nc1nc2ccc(Cl)cc2c2nc(-c3ccco3)nn12,-9.72 ± 5.7,-11.1 ± 1.8,-5 ± 10,-8.53 ± 10
COc1ccc(Cl)cc1C(=O)NCCc1ccc(S(=O)(=O)NC(=O)NC2CCCCC2)cc1 [Glibenclamide],-3.31 ± 0.98,-3.22 ± 3.5,2.02 ± 1.2,-6.18 ± 0.27
COC(=O)C1=C(C)NC(C)=C(C(=O)OCCCN2CCC(c3ccccc3)(c3ccccc3)CC2)[C@H]1c1cccc([N+](=O)[O-])c1 [(S)-(+)-Niguldipine hydrochloride],-56.8 ± 46,-22.8 ± 5,-24 ± 2.9,-39.2 ± 7.1
CCCCCS(=O)(=O)CCCCCCCCCCn1c(-c2ccc(O)cc2)c(C)c2cc(O)ccc21,-40.8 ± 26,-54.5 ± 29,-33.6 ± 15,-59.6 ± 13
Cc1nc2c(c(=O)[nH]1)CSCC2,-4.91 ± 3.1,-14 ± 10,-3.06 ± 2.2,-14.5 ± 3.6
O=C(COc1cccc2c(=O)[nH]ccc12)c1ccccc1,-5.58 ± 2.1,-6.97 ± 4.5,4.93 ± 6.8,-10.3 ± 1.8
Oc1cc2c(c(Cl)c1O)CCNCC2c1ccccc1 (centres undefined),-37.1 ± 41,-6.48 ± 3.9,2.21 ± 1.6,-82.6 ± 77

# Not a retest: entries from further up.
Compound,robust z score of cell number (mIMCD3 [1]; siRNA: siRpgrip1l),robust z score of cell number (mIMCD3 [1]; siRNA: siScr),robust z score of cilia incidence (mIMCD3 [2]),robust z score of cilia incidence (mIMCD3 [3])
CCCCCS(=O)(=O)CCCCCCCCCCn1c(-c2ccc(O)cc2)c(C)c2cc(O)ccc21,-40.8 ± 26,-54.5 ± 29,-33.6 ± 15,-59.6 ± 13
Cc1nc2c(c(=O)[nH]1)CSCC2,-4.91 ± 3.1,-14 ± 10,-3.06 ± 2.2,-14.5 ± 3.6
